At least one structure is not confirmed: it was looked up by name or label, or the drawing left a doubt.
Tests used:
[1] = test system: ob/ob AMLN mice; test: Hepatic steatosis and hepatic cholesterol content in ob/ob AMLN mice; assay type: in vivo, mouse; settings: 8 weeks, Compound A 45-135 mg/kg, OCA 30 mg/kg
Description: (§1) Obese diet-induced B6.V-Lepob/Jrj mice (ob/ob) are consistently fibrosis (liver) prone when cholesterol (2%), 40% fat (containing 18% trans-fatty acids) and 20% fructose are added to a high-caloric diet (i.e., AMLN high-fat diet). ob/ob mice on AMLN diet (termed ‘ob/ob AMLN mice’) develop steatohepatitis and fibrosis within a shorter timeframe ([…]) compared with wild-type C57BL/6 mice (AMLN mice) fed the same diet. ob/ob AMLN mice provide an obese diet-induced model of NASH that also allows the study of effects on glycemic control. Development of NASH in the ob/ob AMLN model is confirmed by biopsy.
(§2) In Biological Examples 10, 13-14, and 16-18, studies were performed in male ob/ob mice (5 weeks old) fed an AMLN high-fat diet for 18 weeks, then randomized into 6 groups (n=10 per group) to receive either Compound A (at 3 different daily doses, 45 mg/kg, 90 mg/kg or 135 mg/kg) via diet, 30 mg/kg bw per day obeticholic acid (OCA) via diet, or no treatment (vehicle) for a further 8 weeks. Assessment of NASH related parameters and fibrosis was made at study end by quantitative immune histochemistry (IHC) measurements.

[2] = test system: galectin-3 (Gal-3); test: Hepatic galectin-3 (Gal-3) levels by IHC in ob/ob AMLN mice; assay type: in vivo, mouse; settings: 8 weeks, Compound A 45, 90, 135 mg/kg, OCA 30 mg/kg
Description: as §1, §2
To assess the effects of 8 weeks treatment with either Compound A (45 mg/kg, 90 mg/kg, or 135 mg/kg) or OCA (30 mg/kg) on hepatic inflammation in ob/ob AMLN mice, IHC was performed to assess galectin-3 (Gal-3) levels.

[3] = test system: α-smooth muscle actin (SMA); test: Hepatic α-SMA content by quantitative IHC in ob/ob AMLN mice; assay type: in vivo, mouse; settings: 8 weeks, OCA 30 mg/kg, vs vehicle
Description: as §1, §2

[4] = test system: col1A1; test: Hepatic col1A1 content by quantitative IHC in ob/ob AMLN mice; assay type: in vivo, mouse; settings: 8 weeks, OCA 30 mg/kg, significant p<0.05
Description: as §1, §2

[5] = test system: CETP; settings: APOE*3.CETP mice and humans; obeticholic acid; cited from earlier work
[6] = test system: ob/ob AMLN mice; test: Oral glucose tolerance test (OGTT) and glycemic control in ob/ob AMLN mice; assay type: in vivo, mouse; settings: after 3 weeks, Compound A 112 mg/kg, pioglitazone 30 mg/kg
Description: as §1
(§3) In Biological Examples 10-12, 15, and 19, studies were performed in male ob/ob mice (5 weeks old) fed an AMLN high-fat diet for 15 weeks, then randomized into 3 groups (n=10 per group) to receive either 112 mg/kg bw per day of Compound A via diet, 30 mg/kg bw per day pioglitazone via diet or no treatment (vehicle) for a further 4 weeks. An oral glucose tolerance test (OGTT) was performed at week 3. Hepatic fibrosis was assessed via measurements of hepatic fibrogenic/fibrolytic gene expression by RNA sequencing at 4 weeks.
After 3 weeks of administration of Compound A (112 mg/kg), pioglitazone, or vehicle control, an oral glucose tolerance test (OGTT) was performed in ob/ob AMLN mice.

[7] = test system: genes regulating extracellular matrix (ECM) stability or fibrolysis; test: Hepatic ECM stability/fibrolysis gene expression by RNA sequencing in ob/ob AMLN mice; assay type: in vivo, mouse; settings: 4 weeks, Compound A 112 mg/kg, pioglitazone 30 mg/kg
Description: as §1, §3

[8] = test system: canonical genes regulating hepatic fibrogenesis; test: Hepatic fibrogenic gene expression by RNA sequencing in ob/ob AMLN mice; assay type: in vivo, mouse; settings: 4 weeks, Compound A 112 mg/kg, pioglitazone 30 mg/kg
Description: as §1, §3

[9] = test system: inflammatory genes; test: Hepatic inflammatory gene expression in ob/ob AMLN mice; assay type: in vivo, mouse; settings: 4 weeks, Compound A 112 mg/kg, pioglitazone 30 mg/kg
Description: as §1, §3

CC[C@H]1[C@@H](O)[C@@H]2[C@H](CC[C@]3(C)[C@@H]([C@H](C)CCC(=O)O)CC[C@@H]23)[C@@]2(C)CC[C@@H](O)C[C@@H]12 [OCA, reference compound]
steatosis (percent area or total lipid content) [1]: significantly reduced
total hepatic cholesterol content [1]: reduced
Gal-3 expression level, total content [2]: only reduced Gal-3 expression levels when measured as total content
α-SMA (total and % of fractional area content) [3]: did not show any significant effect
col1A1 content compared with pre-biopsy content [4]: mild increases
CETP expression [5]: increases CETP expression

CCc1ccc(CCOc2ccc(CC3SC(=O)NC3=O)cc2)nc1 (centres unmarked) [pioglitazone, reference compound]
fasting insulin [6]: reduced
fasting plasma glucose levels [6]: significant reductions
glucose excursion after glucose load (AUC 0-240 mins), OGTT [6]: significantly reduced
hepatic expression of LOX-like 2 (LOXL2) [7]: significantly reduced
hepatic expression of LOXL1 [7]: significantly reduced
hepatic expression of TIMP1 [7]: significantly reduced
hepatic expression of lysyl-oxidase (LOX) [7]: significantly reduced
hepatic HSP47 expression [8]: significantly reduced
hepatic PDGF-β expression [8]: had no effect
hepatic PDGFR-β expression [8]: had no effect
hepatic col1A1 expression [8]: significantly reduced
hepatic col3A1 expression [8]: significantly reduced
hepatic col4A1 expression [8]: significantly reduced
MCP-1 transcript levels ([9]; data not shown): Neither compound significantly reduced
interleukin (IL)-1β transcript levels ([9]; data not shown): Neither compound significantly reduced
CCR2 expression ([9]; vs vehicle): significantly reduced
CD14 expression ([9]; vs vehicle): significantly reduced
CD68 expression ([9]; vs vehicle): significantly reduced
transcript levels of TGF-β1 ([9]; vs vehicle): but not TGF-β1
transcript levels of TGF-β1 receptor (TGFRβ) ([9]; vs vehicle): reduced

From patent US12440466B2, “Fatty acid derivatives for treating non-alcoholic steatohepatitis” (BASF AS, priority 2017, dated 2025)
